# Laboratory results from paper PMC10163288.
# The other results are listed elsewhere or left out.
# B1: il10ra_site1_normal_mot_HHH_b1_05672_af2_000000246_0001_1_19_H_._HHH_b2_02879_af2_0001_0000300014_0000001_0 (protein)
# chain: SSSSDEEQRVAELLLRVVRLLFEGNPEEAEEVLKEARRLAEELGDEELERYVEIAENFVRSSSSS
# B2: il10ra_site1_sap_30_mot_HHH_b2_00573_000000208_0001_39_53_H_._HHH_b2_07961_0001_0000300034_0000001_0_0001 (protein)
# chain: SSSSDEALERAWELSRRVLELIRQGDEEEAERLLEELKELAEESNDPILRYIVEALERLLGSSSS
# B3: il10ra_site1_sap_20_mot_HHH_b2_02736_000000092_0001_22_38_H_._HHH_b2_05462_af2_0001_0000300019_0000001_0_0001 (protein)
# chain: SSSSSSDKTQEVFELIEEAMQIPDEEEAREVLEEAQRIAEELGNRLLVIQLEFLLRLTSSSSSSS
# B4: il10ra_site1_sap_25_mot_HHH_b2_02497_000000141_0001_1_20_H_._HHH_b1_05800_0001_0000200016_0000001_0_0001 (protein)
# chain: SSSSDVEERLEEFIEEEARRLNSQLLEQTLKYAIEVELEWGASEEEIEEFLERMIRQIEELSSSS
# B5: il10ra_site1_sap_17_mot_HHH_b1_06348_000000162_0001_1_15_H_._HHH_b2_06921_0001_0000200013_0000001_0_0001 (protein)
# chain: SSSSSDEEILEKSVRLLLEAAKRIPDPEYAELSLRFAKASVEAQNDEELKELVERAEEELSSSSS
# B6: il10ra_site1_normal_mot_HHH_b2_08186_000000021_0001_43_56_H_._HHH_b1_08152_af2_0001_0000200016_0000001_1 (protein)
# chain: SSSSDEEEEELEELLEQLERLLREGDRERFLRLIQRALQLAYRASDPEVLQRLWELAREFASSSS
# B7: il10ra_site1_normal_mot_0750aae41c39e4229e2ea8fa354cc919_0001_1_000000144_0001_37_51_H_._ems_3hC_921_0001_af2_0001_0000100007_0000001_0 (protein)
# chain: SSPEEAQKLLEQAEELAEEQNDEKALEAVRFWKELDEAAARRNDERVVRSVARAARALLELLQES
# B8: il10ra_site1_normal_mot_HHH_b2_00612_000000251_0001_1_14_H_._HHH_b2_05838_af2_0001_0000100003_0000001_0_af2pred_0001 (protein)
# chain: SSSSSDEAFKFAREVIEELLELAKKDERKVEELSEEAEKRLRELGNELAARSIKFFAERLSSSSS
# B9: il10ra_site1_sap_25_mot_HHH_b1_05254_000000006_0001_1_19_H_._HHH_b2_07878_0001_0000100014_0000002_0_0001 (protein)
# chain: SSSSDEEKERVEELLEEAEELAKEGDPREAARVLLEAVRLALHLGDPELLQLVWELVHRLASSSS
# B10: il10ra_site1_sap_22_mot_HHH_b1_00999_000000080_0001_41_55_H_._HHH_b2_04871_af2_0001_0000400010_0000001_0_0001 (protein)
# chain: SSSDEEEERARELLEEAEELFEKGNPHEAARVFQEAMRVAAEGGDEELMREIQRLSMELQRSSSS
# B11: il10ra_site1_sap_22_mot_HHH_b2_06480_af2_000000075_0001_1_18_H_._HHH_b2_07088_0001_0000300019_0000001_0_0001 (protein)
# chain: SSSSSDKEVERLLEEAEELLEEGNPEEAIHVLLEAVRLALEEGDEELLQEVWELVLRLAHSSSSS
# B12: il10ra_site1_normal_mot_HHH_b2_06142_af2_000000101_0001_1_18_H_._HHH_b2_05708_0001_0000300027_0000002_0_af2pred_0001 (protein)
# chain: SSSSDLEELLKILAQLSRRVSEELAREILRAIVEALHLRLNGNPEEARKVLEEAIEEAEKSSSSS
# B13: il10ra_site1_sap_24_mot_HHH_b2_00441_000000175_0001_1_18_H_._HHH_b2_02636_0001_0000300021_0000001_0_0001 (protein)
# chain: SSSSDELEELVEAAMRLAEQAAENGDPRAARLLLRALLQLLERENSPLFEEVEELLERIEESSSS
# B14: il10ra_site1_normal_mot_e1dd4851c59bc1cdde016f988f6856bd_0001_1_000000200_0001_16_31_H_._HHH_eva_0684_0001_0000200010_0000001_0_af2pred_0001 (protein)
# chain: SSSSSSTEEEIERIVRELAEEFGLSEEAIRAVEIAAKRNGASERDIELMIRFLALTKKSSSSSSS
# B15: il10ra_site1_sap_22_mot_HHH_b1_03314_af2_000000278_0001_42_55_H_._HHH_b2_06353_af2_0001_0000300009_0000002_0_0001 (protein)
# chain: SSSSSEEEREYAERALRFARALYEAGDPEAARALLELMAEVLRRLGNEELLEEVEELLEELSSSS
# B16: il10ra_site1_sap_16_mot_2fa031a62b9321f410fa37cb4b35ac9e_0001_af2_000000160_0001_1_14_H_._HHH_b1_01244_0001_0000200012_0000001_0_0001_af2pred_0001 (protein)
# chain: SSSSSDNEELVELIRRIAELLAEGDEEEAKELIEEVKKLAEELNNEIARVIAEFLERHQNSSSSS
# B17: il10ra_site1_normal_mot_HHH_b2_00622_af2_000000153_0001_40_57_H_._HHH_b1_06107_0001_0000200021_0000001_0_af2pred_0001 (protein)
# chain: SSSSSHVEEALRRLIRAARRLLELGNPELAELALRFAKRAAEHANDEEVLKEIEELLEELSSSSS
# B18: il10ra_site1_normal_mot_HHH_b1_05317_af2_000000220_0001_43_57_H_._HHH_b2_06830_0001_0000200012_0000001_0 (protein)
# chain: SSSSTEAFEIAKKAAELLKELLKEGDPEEAEKVLEEARELLEEANNEIAVRQLEFFFRREKSSSS
# B19: il10ra_site1_sap_21_mot_HHH_b1_02062_000000185_0001_1_20_H_._HHH_b2_04055_0001_0000100005_0000001_0_0001 (protein)
# chain: SSSSDDEELAVRFHVRLIEQALEQNNEEHVKSALRALRALAELINDPEAQELLEELEELLESSSS
# Molecular target: il10ra, Q13651
# Assay: yeast display titration
row,Binder,apparent Kd
1,B1,inactive: no binding seen
2,B2,inactive: no binding seen
3,B3,inactive: no binding seen
4,B4,inactive: no binding seen
5,B5,inactive: no binding seen
6,B6,inactive: no binding seen
7,B7,inactive: no binding seen
8,B8,inactive: no binding seen
9,B9,inactive: no binding seen
10,B10,inactive: no binding seen
11,B11,inactive: no binding seen
12,B12,inactive: no binding seen
13,B13,inactive: no binding seen
14,B14,inactive: no binding seen
15,B15,inactive: no binding seen
16,B16,inactive: no binding seen
17,B17,inactive: no binding seen
18,B18,inactive: no binding seen
19,B19,inactive: no binding seen

# Taken from above.
# apparent Kd, B10 reads inactive: no binding seen
# apparent Kd, B15 reads inactive: no binding seen
